# Experimental data from PubChem BioAssay AID463199 (Broad Institute, 2010).
# In all, about 2,300 compounds were measured (“growth induction”: median about -24, highest 2% from about 42 on). The list shows a part of the results. Measured potencies and affinities stand elsewhere. Where no call is shown, the source marks the result inconclusive.
# Test: growth induction of Burl-1 ts yeast mutant, dose response, counter-screen for SUMOylation pathway inhibitor project, whole organism, S. cerevisiae, luminescence (AID 463199)
# Conditions: S. cerevisiae Burl-1 ts mutant growth, BacTiter-Glo, 38.5C 24 h; at 42 µM (top of the series)
row,SMILES,growth induction [%]
1,C[n+]1c(-c2ccccc2)cc(CCCCc2cc(-c3ccccc3)[n+](C)c(-c3ccccc3)c2)cc1-c1ccccc1,-57.5
